Assay results taken from the supplement of paper PMC12889115.
The other results are listed elsewhere or left out. These are raw signals, not scaled to a control.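 First-pass screen: polymyxin B was added at a level that permeabilizes the Salmonella outer membrane while sparing the inner membrane. DMSO wells, with and without polymyxin B, defined maximum growth. Because plates differed from one another, each plate's data were ranked separately and the compounds with the lowest OD600 were carried forward as hits.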

Tested on: Salmonella enterica serovar Typhimurium SL1344
Assay: bacterial growth OD600 after 18 h with compound and polymyxin B; higher = more bacterial growth (less inhibition)
Conditions: 50 µM, Mueller-Hinton broth

Row | SMILES | bacterial growth OD600 (polymyxin B 1 µg/mL) | bacterial growth OD600 (polymyxin B 0.75 µg/mL)
1 | COc1ccc2ccc(OCc3nc(C(=O)N(C)Cc4cccnc4)co3)cc2c1 | 0.832 | 
2 | COCCO[C@H]1[C@H](NC(=O)C(C)C)c2ccccc2C12CCN(Cc1cccc(F)c1F)CC2 |  | 0.793
3 | OCC1(Cc2ccccc2F)CCCN(Cc2cnn(-c3ccccc3)c2)C1 (configuration not stated) | 0.848 | 
4 | CC(C)(C)CN1CCCC(O)(CNCc2ccc(-n3cncn3)cc2)C1=O (configuration not stated) | 1.03 | 
5 | O=C(CCC1CCN(C(=O)C2CCCO2)CC1)NCc1cccc(C(F)(F)F)c1 (configuration not stated) | 0.972 | 
6 | CN(CC(O)COc1ccccc1CN1CCCCO1)C1CCCCC1 (configuration not stated) | 0.941 | 
7 | CCCn1c(C)c(CC(=O)NC(C)Cn2cncn2)c2c1CC(C)(C)CC2=O (configuration not stated) | 0.796 | 
8 | Cc1noc(C)c1CCC(=O)NCc1cccnc1-n1cnc2ccccc21 | 0.919 | 
9 | Cn1nccc1C(=O)N1CCCC(CCc2ccc(F)cc2F)C1 (configuration not stated) |  | 0.578
10 | CCCCC1CN(CCNC(=O)C(c2cccnc2)N2CCOCC2)Cc2ccccc2O1 (configuration not stated) |  | 0.797
11 | CN(Cc1cccnc1)C(=O)CC(c1ccccc1)c1ccc(Cl)cc1 (configuration not stated) | 0.035 | 
12 | COC(=O)CC1C(=O)NCCN1C(=O)c1ccc2nc(C3CCCCC3)oc2c1 (configuration not stated) |  | 0.795
13 | COCCCNc1nc2nonc2nc1N1CCCCC1c1cccnc1 (configuration not stated) | 0.805 | 
14 | Cc1ccc(C(=O)N2CCCC(CCC(=O)Nc3ccc(F)cc3C)C2)cn1 (configuration not stated) | 0.629 | 
15 | COc1ccc(CN2CCN(Cc3ccc(C)o3)C(CCO)C2)c(OC)c1C (configuration not stated) | 0.809 | 
16 | C=CCS(=O)(=O)N1CCC2(CCCN(Cc3cccc(F)c3F)C2=O)C1 (configuration not stated) | 0.968 | 

Row | SMILES | bacterial growth OD600 (polymyxin B 1 µg/mL) | bacterial growth OD600 (polymyxin B 0.75 µg/mL)
17 | COC(=O)CN(C)c1ccc(-c2nc(-c3ccccc3F)no2)cn1 | 0.989 | 
18 | COc1ccc(CN2CCCC(CO)(Cc3ccccc3F)C2)c(F)c1 (configuration not stated) | 0.761 | 
19 | COc1ccc(OC)c(CN2CCCC(C(=O)c3cc(F)ccc3OC)C2)c1 (configuration not stated) |  | 0.751
20 | Cc1nccn1-c1ccc(NC(=O)C2CCCN2CC2CC2)cc1 (configuration not stated) |  | 0.838
21 | CN(CCN1CCOCC1)C(=O)c1cc(COc2cccc(F)c2)[nH]n1 | 1.1 | 
22 | CC(=O)NCCNC(=O)Cc1c2c(n(Cc3ccccc3F)c1C)CCCC2=O |  | 0.205
23 | CC(=O)c1cccc(OCc2cc(C(=O)N(C)Cc3ccc(F)cc3)n[nH]2)c1 | 0.904 | 
24 | CC(=O)NCCC1CCCCN1c1nc2nonc2nc1N1CCSCC1 (configuration not stated) |  | 0.816
25 | COC(=O)c1ccc(CN2CCC3(CC2)c2ccccc2[C@@H](NC(=O)c2ccco2)[C@@H]3OC)cc1 |  | 0.809
26 | CN(Cc1ccccc1)c1ncc2c(n1)CC(C)(C)CC2NC1CCOCC1 (configuration not stated) | 0.46 | 
27 | CC(=O)Nc1ccc(CN2CC[C@@H](N(C)CCc3ccccn3)[C@H](O)C2)cc1 |  | 0.803
28 | COc1ccc2c(c1)SC(c1ccc(OC)c(C)c1)CCN2Cc1cnn(C)c1C (configuration not stated) |  | 0.001
29 | Fc1ccc(-n2cccn2)c(CNCc2cccnc2Oc2ccccc2)c1 | 1.03 | 
30 | O=C1CCC(CCC(=O)N2CCN(C(=O)c3ccco3)CC2)(Cc2ccc(-c3ccccc3)cc2)N1 (configuration not stated) |  | 0.894
31 | Cc1nn(C)c(C)c1CN(Cc1nc(-c2cccc(Cl)c2)oc1C)C1CC1 |  | 0.005
32 | CCN1CCN(c2ccc(-c3nc(-c4ccccc4C)no3)cn2)CC1 |  | 0.002

Not a retest: an excerpt of the list.
Row | SMILES | bacterial growth OD600 (polymyxin B 1 µg/mL) | bacterial growth OD600 (polymyxin B 0.75 µg/mL)
17 | COC(=O)CN(C)c1ccc(-c2nc(-c3ccccc3F)no2)cn1 | 0.989 | 
18 | COc1ccc(CN2CCCC(CO)(Cc3ccccc3F)C2)c(F)c1 (configuration not stated) | 0.761 | 
